The subject of data set [1] is thrombin (alpha-thrombin) (Homo sapiens). The data set is described as follows: filter binding. Particulars: 10 nM thrombin; purified native protein; protein details: Enzyme Research Labs; single-stranded DNA.
The target in data set [2] is prothrombin (Homo sapiens) (UniProt P00734). Nature of the data set: filter binding. Particulars: 50 nM prothrombin; purified native protein; protein details: Athens Research; single-stranded DNA.

Consider “TCCCAGGACCGATCTTGGTATTGTTGGTGGGGGTGGCTGAGGATCGATC [AMX(399)_G1]”, for which the figures for the binding signal in data set [1] and in data set [2] were 4.89 % bound and 2.44 % bound, respectively.
On the same counts, the results for “TCCCATCGAGCCGGGGATGGTTTGTTGGAGGGGTGGCTGAGGATCGATC [AMX(398)_B9]” are 3.03 % bound and 2.16 % bound.
Consider “TCCCATCGATCCGCGGTACTTTCGTGGCTTGGGTGGCTGAGGATCGATC [AMX(399)_E8]”, for which the values for the binding signal in data set [1] and in data set [2] were 4.31 % bound and 4.37 % bound, respectively.
With “TCCCGCTCGATTTCGAAGAATGGTTGGTTTGGGTGGCTGAGGATCGATC [AMX(398)_B11]”, in data set [2], the binding signal was 2.08 % bound.
With “TCCCGGAGATCCGAGGTGTTTTATTGGTTTGGGTGGCTGAGGATCGATC [AMX(399)_H9]”, the binding signal is 3.86 % bound in data set [1] and 3.16 % bound in data set [2].
“TCCCGGTCGAGACTCGGAGTATGGCAGGGTGGGTGGCTGAGGATCGATC [AMX(398)_E2]”: the binding signal in data set [1] came to 3.84 % bound; in data set [2] it was 2.62 % bound.

The record behind these values is patent publication US20090221680.
